Data published in PMC6265447, “The bacterial Mre11–Rad50 homolog SbcCD cleaves opposing strands of DNA by two chemically distinct nuclease reactions” (Nucleic Acids Research, 2018).
For at least one entry, the source does not settle the construct or the ends of the probe. For part of these data: A negative result means that nothing was seen under these conditions. For part of these data: The comparison behind a weaker result is the experiment's own reference, which may not be listed here. For part of these data: At least one verdict rests on a figure or table, not on a statement of the authors.

What was measured:
SbcC + SbcD H84Q = assay: fluorescence anisotropy; settings: 1 mM ATP, 5 mM Mg2+, 1 mM Mn2+; 25 mM Tris pH 7.5, 50 mM KCl, 5 mM MgCl2, 1 mM MnCl2, 1 mM DTT, 1 mM ATP where stated; 5 nM DNA, 2-1000 nM SbcCD, 20 min at …; recombinant protein; protein details: C-terminal His6; label: 5' 6-FAM; letters put together from the description
SbcC + SbcD H84S = assay: fluorescence anisotropy; settings: no ATP, 5 mM Mg2+, 1 mM Mn2+; 25 mM Tris pH 7.5, 50 mM KCl, 5 mM MgCl2, 1 mM MnCl2, 1 mM DTT, 1 mM ATP where stated; 5 nM DNA, 2-1000 nM SbcCD, 20 min at 25 C; recombinant protein; protein details: C-terminal His6; label: 5' 6-FAM; letters put together from the description

Q: Does “CGCTTTATCAGAAGCCAGACATTAACGCTTCTGGA (double strand) [35 bp DNA]” bind (SbcC + SbcD H84Q)?
A: Result: binds

Q: Does “CGCTTTATCAGAAGCCAGACATTAACGCTTCTGGAGAAACTCAAC (double strand) [45 bp DNA]” bind (SbcC + SbcD H84Q)?
A: Result: binds

Q: Does “CGCTTTATCAGAAGCCAGACATTAACGCTTCTGGAGAAACTCAACGAGCT (double strand) [50 bp DNA]” bind (SbcC + SbcD H84Q)?
A: Result: binds

Q: Does “CGCTTTATCAGAAGCCAGACATTAACGCTTCTGGAGAAAC (double strand) [40 bp DNA]” bind (SbcC + SbcD H84Q)?
A: Result: binds

Q: Does “CGCTTTATCAGAAGCCAGAC (double strand) [20 bp DNA]” bind (SbcC + SbcD H84Q)?
A: Result: binds more weakly

Q: Does “CGCTTTATCAGAAGCCAGACATTAACGCTT (double strand) [30 bp DNA]” bind (SbcC + SbcD H84S)?
A: Result: no binding
